# The supplement of paper PMC10849652
# By UniProt entry, the sequences of proteins in these tests, tags left out. Where a name states a change or a piece, a line headed by the entry shows the natural chain unless it says otherwise.
# UniProt P80108: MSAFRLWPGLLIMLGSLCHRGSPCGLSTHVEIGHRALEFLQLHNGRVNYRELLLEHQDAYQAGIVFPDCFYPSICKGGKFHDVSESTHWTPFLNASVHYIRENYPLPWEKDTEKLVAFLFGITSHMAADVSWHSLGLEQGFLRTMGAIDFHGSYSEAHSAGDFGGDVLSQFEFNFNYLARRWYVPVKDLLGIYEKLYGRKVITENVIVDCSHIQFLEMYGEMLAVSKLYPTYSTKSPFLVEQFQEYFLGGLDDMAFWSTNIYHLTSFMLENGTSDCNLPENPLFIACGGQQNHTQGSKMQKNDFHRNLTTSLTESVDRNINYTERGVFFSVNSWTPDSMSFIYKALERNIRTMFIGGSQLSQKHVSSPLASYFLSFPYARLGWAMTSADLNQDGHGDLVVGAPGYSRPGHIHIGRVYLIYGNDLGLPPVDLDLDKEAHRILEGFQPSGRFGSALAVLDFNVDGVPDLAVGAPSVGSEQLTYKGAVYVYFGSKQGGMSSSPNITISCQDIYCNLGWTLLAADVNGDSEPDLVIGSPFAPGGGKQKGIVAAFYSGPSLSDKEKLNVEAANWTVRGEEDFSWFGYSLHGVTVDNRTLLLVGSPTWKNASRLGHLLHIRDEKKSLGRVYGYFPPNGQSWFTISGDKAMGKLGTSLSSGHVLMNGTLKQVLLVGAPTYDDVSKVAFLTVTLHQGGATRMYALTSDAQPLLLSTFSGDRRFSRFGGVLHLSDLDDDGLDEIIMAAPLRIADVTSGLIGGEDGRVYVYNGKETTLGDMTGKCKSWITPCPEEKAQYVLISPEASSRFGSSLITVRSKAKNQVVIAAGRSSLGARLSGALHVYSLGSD
# UniProt P36915, whole entry, looked up: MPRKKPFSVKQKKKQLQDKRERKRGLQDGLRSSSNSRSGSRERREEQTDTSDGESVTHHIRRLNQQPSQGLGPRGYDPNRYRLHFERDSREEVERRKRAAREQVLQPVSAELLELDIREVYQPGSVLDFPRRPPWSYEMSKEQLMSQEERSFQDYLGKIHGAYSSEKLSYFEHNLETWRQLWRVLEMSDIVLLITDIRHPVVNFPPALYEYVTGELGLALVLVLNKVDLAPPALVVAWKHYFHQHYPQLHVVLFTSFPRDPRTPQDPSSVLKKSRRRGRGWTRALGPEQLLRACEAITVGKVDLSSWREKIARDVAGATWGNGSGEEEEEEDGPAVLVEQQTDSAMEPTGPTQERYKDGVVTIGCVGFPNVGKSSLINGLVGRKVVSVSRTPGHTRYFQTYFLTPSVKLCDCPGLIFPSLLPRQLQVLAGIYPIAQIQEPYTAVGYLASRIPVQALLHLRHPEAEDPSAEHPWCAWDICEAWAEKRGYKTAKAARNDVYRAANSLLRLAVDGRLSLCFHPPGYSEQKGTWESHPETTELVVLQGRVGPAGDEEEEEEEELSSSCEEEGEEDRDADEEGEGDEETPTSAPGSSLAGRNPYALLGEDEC
# UniProt Q9NPB8: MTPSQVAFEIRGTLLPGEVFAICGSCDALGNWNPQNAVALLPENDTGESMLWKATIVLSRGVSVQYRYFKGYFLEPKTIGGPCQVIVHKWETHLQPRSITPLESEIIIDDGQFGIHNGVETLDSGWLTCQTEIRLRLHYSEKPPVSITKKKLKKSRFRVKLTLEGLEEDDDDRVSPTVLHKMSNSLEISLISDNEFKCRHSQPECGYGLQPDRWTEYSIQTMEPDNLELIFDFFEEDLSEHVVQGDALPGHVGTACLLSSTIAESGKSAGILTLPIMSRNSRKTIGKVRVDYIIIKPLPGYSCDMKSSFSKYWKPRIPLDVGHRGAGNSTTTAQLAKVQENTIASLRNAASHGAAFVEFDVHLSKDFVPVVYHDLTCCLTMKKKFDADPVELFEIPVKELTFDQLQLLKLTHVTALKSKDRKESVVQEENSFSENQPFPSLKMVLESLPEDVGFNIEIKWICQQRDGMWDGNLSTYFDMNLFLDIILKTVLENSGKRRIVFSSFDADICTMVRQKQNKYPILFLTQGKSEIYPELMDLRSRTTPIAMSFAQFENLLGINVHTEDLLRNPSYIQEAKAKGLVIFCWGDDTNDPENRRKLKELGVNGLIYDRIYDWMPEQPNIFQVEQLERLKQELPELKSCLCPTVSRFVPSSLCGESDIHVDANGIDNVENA
# UniProt Q9HAV0, whole entry, looked up: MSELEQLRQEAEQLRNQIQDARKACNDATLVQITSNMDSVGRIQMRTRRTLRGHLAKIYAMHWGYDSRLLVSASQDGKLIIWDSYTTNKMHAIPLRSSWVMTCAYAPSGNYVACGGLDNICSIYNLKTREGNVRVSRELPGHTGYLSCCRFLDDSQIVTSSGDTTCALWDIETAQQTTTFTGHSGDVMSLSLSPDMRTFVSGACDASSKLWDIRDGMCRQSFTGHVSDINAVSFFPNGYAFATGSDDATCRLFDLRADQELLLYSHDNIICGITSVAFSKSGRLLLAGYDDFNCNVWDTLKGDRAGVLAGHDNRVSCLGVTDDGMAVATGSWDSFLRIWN
# UniProt Q9NU53: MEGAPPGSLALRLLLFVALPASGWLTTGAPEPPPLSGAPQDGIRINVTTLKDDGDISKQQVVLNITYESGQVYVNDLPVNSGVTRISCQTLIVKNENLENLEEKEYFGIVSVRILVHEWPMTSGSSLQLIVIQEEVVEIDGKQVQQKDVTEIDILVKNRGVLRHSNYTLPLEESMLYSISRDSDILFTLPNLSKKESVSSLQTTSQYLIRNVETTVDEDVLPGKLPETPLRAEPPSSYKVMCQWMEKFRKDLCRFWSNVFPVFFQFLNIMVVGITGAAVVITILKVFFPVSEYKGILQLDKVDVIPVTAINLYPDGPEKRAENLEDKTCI
# UniProt Q8TF64: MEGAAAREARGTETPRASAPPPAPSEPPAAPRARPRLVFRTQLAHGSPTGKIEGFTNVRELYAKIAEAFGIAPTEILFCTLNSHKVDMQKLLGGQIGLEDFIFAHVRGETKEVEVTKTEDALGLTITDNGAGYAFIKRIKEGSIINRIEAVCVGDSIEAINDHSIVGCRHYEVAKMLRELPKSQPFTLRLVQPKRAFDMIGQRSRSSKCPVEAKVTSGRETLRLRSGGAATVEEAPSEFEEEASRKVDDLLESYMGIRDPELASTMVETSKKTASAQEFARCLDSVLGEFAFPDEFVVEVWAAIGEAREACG
# UniProt Q3T906: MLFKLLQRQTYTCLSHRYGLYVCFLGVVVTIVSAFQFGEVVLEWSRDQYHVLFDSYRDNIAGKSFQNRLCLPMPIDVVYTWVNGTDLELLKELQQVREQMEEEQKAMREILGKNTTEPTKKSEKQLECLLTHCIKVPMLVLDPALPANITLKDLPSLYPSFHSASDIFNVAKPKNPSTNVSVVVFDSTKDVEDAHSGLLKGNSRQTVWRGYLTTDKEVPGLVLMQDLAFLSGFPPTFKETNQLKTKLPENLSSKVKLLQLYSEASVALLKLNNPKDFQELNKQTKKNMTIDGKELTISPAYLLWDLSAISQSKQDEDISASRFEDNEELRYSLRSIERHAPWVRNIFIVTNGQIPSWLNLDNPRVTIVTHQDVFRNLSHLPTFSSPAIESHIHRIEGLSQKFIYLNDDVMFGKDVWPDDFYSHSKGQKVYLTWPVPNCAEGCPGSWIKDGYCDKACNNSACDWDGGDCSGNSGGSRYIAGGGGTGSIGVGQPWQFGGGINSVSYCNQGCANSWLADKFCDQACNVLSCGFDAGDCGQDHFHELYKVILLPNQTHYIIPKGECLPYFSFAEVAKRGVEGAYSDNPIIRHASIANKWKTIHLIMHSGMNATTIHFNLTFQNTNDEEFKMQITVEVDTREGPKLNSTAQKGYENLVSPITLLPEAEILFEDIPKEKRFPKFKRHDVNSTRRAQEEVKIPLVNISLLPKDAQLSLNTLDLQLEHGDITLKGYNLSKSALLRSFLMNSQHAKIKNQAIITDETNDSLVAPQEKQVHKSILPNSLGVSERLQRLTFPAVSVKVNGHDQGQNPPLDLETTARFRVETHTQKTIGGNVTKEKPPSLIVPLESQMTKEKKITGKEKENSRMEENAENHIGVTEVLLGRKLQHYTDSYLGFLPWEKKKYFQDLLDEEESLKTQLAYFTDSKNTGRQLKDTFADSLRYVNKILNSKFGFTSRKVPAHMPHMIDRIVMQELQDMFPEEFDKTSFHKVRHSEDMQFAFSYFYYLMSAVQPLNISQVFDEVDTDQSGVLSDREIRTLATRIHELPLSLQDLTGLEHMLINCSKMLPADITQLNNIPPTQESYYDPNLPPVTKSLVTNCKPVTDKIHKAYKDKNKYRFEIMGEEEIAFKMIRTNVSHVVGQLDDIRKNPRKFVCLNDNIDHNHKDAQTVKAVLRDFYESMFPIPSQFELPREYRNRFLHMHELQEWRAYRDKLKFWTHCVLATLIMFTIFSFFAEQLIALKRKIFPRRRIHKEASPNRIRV
# UniProt Q9UBI6: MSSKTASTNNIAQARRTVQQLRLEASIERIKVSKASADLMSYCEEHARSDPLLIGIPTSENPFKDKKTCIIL
# UniProt Q96I76: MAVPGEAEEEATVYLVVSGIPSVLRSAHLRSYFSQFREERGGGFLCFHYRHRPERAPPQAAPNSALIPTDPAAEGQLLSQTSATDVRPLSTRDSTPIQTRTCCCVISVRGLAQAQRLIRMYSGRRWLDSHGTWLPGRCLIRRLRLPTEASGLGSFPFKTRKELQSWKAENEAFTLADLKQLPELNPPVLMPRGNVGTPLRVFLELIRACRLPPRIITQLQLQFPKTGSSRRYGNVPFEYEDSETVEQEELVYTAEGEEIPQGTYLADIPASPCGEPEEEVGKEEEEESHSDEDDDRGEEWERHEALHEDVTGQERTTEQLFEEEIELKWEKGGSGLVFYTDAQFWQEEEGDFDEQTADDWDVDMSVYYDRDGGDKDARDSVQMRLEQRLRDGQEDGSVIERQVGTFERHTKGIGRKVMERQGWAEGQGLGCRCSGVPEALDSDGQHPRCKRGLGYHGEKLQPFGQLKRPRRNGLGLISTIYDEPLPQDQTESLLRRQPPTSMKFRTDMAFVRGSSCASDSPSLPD
# UniProt I6L899: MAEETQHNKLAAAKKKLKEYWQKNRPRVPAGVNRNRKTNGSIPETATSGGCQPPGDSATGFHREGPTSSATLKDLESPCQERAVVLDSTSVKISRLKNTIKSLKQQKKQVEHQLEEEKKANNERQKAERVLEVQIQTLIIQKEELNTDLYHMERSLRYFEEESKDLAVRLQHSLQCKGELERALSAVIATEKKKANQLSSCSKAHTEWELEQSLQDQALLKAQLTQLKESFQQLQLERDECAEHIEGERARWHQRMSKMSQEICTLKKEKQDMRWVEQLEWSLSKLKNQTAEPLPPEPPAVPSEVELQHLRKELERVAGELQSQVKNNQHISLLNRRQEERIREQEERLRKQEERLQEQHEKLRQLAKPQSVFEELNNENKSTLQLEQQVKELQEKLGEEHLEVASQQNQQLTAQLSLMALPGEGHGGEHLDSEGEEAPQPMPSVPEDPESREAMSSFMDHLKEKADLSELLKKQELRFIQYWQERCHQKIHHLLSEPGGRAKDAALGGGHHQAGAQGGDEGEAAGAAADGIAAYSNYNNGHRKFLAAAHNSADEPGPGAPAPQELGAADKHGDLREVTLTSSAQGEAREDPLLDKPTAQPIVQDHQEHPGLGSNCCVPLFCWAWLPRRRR
# UniProt Q7Z2K8: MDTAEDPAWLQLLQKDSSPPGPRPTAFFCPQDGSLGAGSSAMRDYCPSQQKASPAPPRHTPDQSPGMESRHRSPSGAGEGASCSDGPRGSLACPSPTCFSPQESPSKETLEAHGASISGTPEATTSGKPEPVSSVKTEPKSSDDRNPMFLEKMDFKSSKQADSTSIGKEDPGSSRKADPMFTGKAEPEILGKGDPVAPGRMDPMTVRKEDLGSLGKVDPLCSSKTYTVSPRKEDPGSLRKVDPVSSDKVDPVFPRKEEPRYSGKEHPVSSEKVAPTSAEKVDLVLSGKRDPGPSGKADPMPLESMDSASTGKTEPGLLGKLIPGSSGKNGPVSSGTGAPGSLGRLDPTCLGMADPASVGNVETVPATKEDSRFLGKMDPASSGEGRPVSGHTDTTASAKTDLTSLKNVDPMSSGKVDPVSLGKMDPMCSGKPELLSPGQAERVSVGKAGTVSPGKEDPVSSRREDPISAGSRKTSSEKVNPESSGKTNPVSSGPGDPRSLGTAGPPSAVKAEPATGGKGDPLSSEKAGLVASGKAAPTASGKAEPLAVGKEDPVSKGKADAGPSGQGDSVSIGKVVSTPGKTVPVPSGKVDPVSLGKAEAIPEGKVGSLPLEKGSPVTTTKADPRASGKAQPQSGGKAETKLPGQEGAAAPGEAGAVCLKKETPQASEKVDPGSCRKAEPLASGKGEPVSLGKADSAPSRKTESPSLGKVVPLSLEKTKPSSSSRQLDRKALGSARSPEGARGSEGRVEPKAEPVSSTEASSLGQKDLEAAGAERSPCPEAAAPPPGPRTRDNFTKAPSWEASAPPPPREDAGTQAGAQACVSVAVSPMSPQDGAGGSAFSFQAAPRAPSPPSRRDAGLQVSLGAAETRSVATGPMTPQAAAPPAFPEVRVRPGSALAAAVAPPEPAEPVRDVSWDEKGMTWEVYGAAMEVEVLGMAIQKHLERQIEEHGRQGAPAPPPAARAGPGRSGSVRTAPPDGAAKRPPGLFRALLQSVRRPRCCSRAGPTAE
# The other results are listed elsewhere or left out.
# Columns and labels:
# Assay in all cases: log2 fold change, soluble protein after heating vs DMSO (PISA); higher = thermal stabilisation; K562 lysate, 10 uM; active = over 0.2 and 3.5 SD of the protein, either way, in both replicates (recomputed)
# [1] = compound: Cc1nc(Nc2ncc(C(=O)Nc3c(C)cccc3Cl)s2)cc(N2CCN(CCO)CC2)n1 [dasatinib]
# Method in brief: (§1)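 Following dounce homogenisation of K562 pellets in PBS pH 7.4 with 1 mM MgCl2, crude extract at 1 mg/mL protein was incubated for 30 min with 10 μM compound. Aliquots were then heated for 3 min over 48°C-58°C and pooled, NP-40 was added to 0.5% at 4°C, and soluble protein was recovered as the supernatant at 21,000xg for 90 min. Channel-sum-equalised TMTpro 16plex LC-MS/MS quantified this protein. Each value, from duplicates, is a log-two fold change in thermal stability relative to solvent controls.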
# [2] = compound: Cn1cc(-c2ccc3c(c2)CCN3C(=O)Cc2cccc(C(F)(F)F)c2)c2c(N)ncnc21
# Method in brief: as §1
# [3] = compound: Cn1cc(CNCC2CCN(c3ncc(C(=O)NO)cn3)CC2)c2ccccc21 [quisinostat]
# Method in brief: as §1
# [4] = compound: NC(=O)Nc1cc(-c2cccc(F)c2)sc1C(=O)N[C@H]1CCCNC1
# Method in brief: as §1
# [5] = compound: O=C1NC(=O)C(c2cnc3ccccn23)=C1c1cn2c3c(cc(F)cc13)CN(C(=O)N1CCCCC1)CC2
# Method in brief: as §1
# [6] = compound: c1cn2cc(-c3ccc4cn[nH]c4c3)nc(Nc3ccc(N4CCOCC4)cc3)c2n1 [entospletinib]
# Method in brief: as §1
# [7] = compound: NC(=O)c1cnc(N[C@@H]2CCCC[C@@H]2N)nc1Nc1cccc(-n2nccn2)c1
# Method in brief: as §1
# [8] = compound: NC1(c2ccc(-c3nc4ccn5c(=O)[nH]nc5c4cc3-c3ccccc3)cc2)CCC1
# Method in brief: as §1
# [9] = compound: O=C(CCCCCCC(=O)Nc1ccccc1)NO [vorinostat]
# Method in brief: as §1
# [10] = compound: O=C(O)c1ccc2c(c1)nc(Nc1cccc(Cl)c1)c1ccncc12 [silmitasertib]
# Method in brief: as §1
# [11] = compound: Cc1cn(-c2cc(NC(=O)c3ccc(C)c(Nc4nccc(-c5cccnc5)n4)c3)cc(C(F)(F)F)c2)cn1 [nilotinib]
# Method in brief: as §1
# [12] = compound: Cc1nc(Nc2n[nH]c3c2CN(C(=O)N[C@H](CN(C)C)c2ccccc2)C3(C)C)c2sccc2n1
# Method in brief: as §1
# [13] = compound: Cc1ncc(-c2ccnc(Nc3ccc(S(C)(=O)=O)cc3)n2)n1C(C)C
# Method in brief: as §1
# [14] = compound: Cn1cncc1[C@@](N)(c1ccc(Cl)cc1)c1ccc2c(c1)c(-c1cccc(Cl)c1)cc(=O)n2C [tipifarnib]
# Method in brief: as §1
# [15] = compound: NCC(=O)Nc1ccc(-n2nc(C(F)(F)F)cc2-c2ccc3c(ccc4ccccc43)c2)cc1
# Method in brief: as §1
Target,log2 fold change [1],log2 fold change [2],log2 fold change [3],log2 fold change [4],log2 fold change [5],log2 fold change [6],log2 fold change [7],log2 fold change [8],log2 fold change [9],log2 fold change [10],log2 fold change [11],log2 fold change [12],log2 fold change [13],log2 fold change [14],log2 fold change [15]
GPLD1 (UniProt P80108),inactive: -0.255,inactive: 0,inactive: 0.108,inactive: 0.153,inactive: 0.366,–,–,–,–,–,–,–,–,–,–
GPATCH2L (UniProt Q9NWQ4),inactive: -0.034,inactive: 0.123,inactive: -0.124,inactive: -0.214,inactive: -0.014,inactive: -0.171,–,–,–,–,–,–,–,–,–
GNAS isoform 3 (UniProt P63092),–,–,inactive: 0,inactive: 0.058,inactive: -0.106,–,inactive: -0.039,inactive: -0.046,inactive: 0.138,inactive: 0.066,–,–,–,–,–
GOLGB1 isoform 4 (UniProt Q14789),inactive: 0.076,inactive: -0.025,–,–,–,–,–,–,–,–,–,–,–,–,–
GK5 (UniProt Q6ZS86),–,–,inactive: -0.092,inactive: -0.071,inactive: 0.241,–,–,–,–,–,–,–,–,–,–
GMEB1 isoform 2 (UniProt Q9Y692),–,–,inactive: 0.058,inactive: 0.03,inactive: -0.109,–,–,–,–,–,inactive: -0.163,inactive: 0.06,inactive: 0.066,inactive: 0.082,–
GNL1 (UniProt P36915),inactive: -0.028,inactive: 0,inactive: 0.025,inactive: 0.034,inactive: -0.016,inactive: 0.032,inactive: 0.001,inactive: -0.031,inactive: -0.023,inactive: 0.017,inactive: -0.001,inactive: 0.017,inactive: -0.021,inactive: 0.027,inactive: 0.013
GPNMB (UniProt Q14956),inactive: 0.068,inactive: -0.405,inactive: -0.758,inactive: 0.362,inactive: 0.782,–,inactive: 0.016,–,–,–,inactive: 0.212,inactive: -0.073,inactive: 0.445,inactive: 0.029,–
GPCPD1 (UniProt Q9NPB8),inactive: 0.036,inactive: 0.039,inactive: -0.019,inactive: 0.082,inactive: 0.063,inactive: -0.008,inactive: -0.047,inactive: -0.056,inactive: -0.189,inactive: 0.025,inactive: 0.07,inactive: -0.005,inactive: -0.004,inactive: 0.038,inactive: 0.061
GNB4 (UniProt Q9HAV0),inactive: 0.048,inactive: -0.097,inactive: 0.042,inactive: -0.172,inactive: -0.059,inactive: 0.029,inactive: 0.028,inactive: 0.007,inactive: 0.006,inactive: 0.017,inactive: -0.083,inactive: 0.055,inactive: 0.127,inactive: 0.048,–
GGACT (UniProt Q9BVM4),inactive: 0.074,inactive: -0.011,inactive: -0.035,inactive: -0.172,inactive: 0.203,inactive: 0.004,inactive: 0.003,inactive: -0.009,inactive: -0.255,inactive: 0.017,–,–,–,–,inactive: 0.094
GINM1 (UniProt Q9NU53),–,–,inactive: -0.359,inactive: 0.047,inactive: 0.175,–,–,inactive: -0.027,inactive: 0.129,inactive: -0.083,inactive: 0.066,inactive: 0.102,inactive: -0.046,inactive: 0.053,–
GOSR1 (UniProt E9PCW1),inactive: -0.115,inactive: -0.066,inactive: 0.096,inactive: -0.038,inactive: 0.157,–,–,–,–,–,inactive: -0.001,inactive: 0.001,inactive: 0.128,inactive: -0.183,–
GLTP (UniProt Q9NZD2),inactive: -0.002,inactive: 0.01,inactive: -0.171,inactive: 0,inactive: 0.091,inactive: -0.071,inactive: 0.075,inactive: 0.056,inactive: 0.024,inactive: -0.062,–,–,–,–,inactive: -0.166
GLRX (UniProt P35754),–,–,inactive: 0.014,inactive: -0.028,inactive: -0.032,inactive: 0.013,–,–,–,–,–,–,–,–,inactive: 0.012
GIPC3 (UniProt Q8TF64),inactive: -0.071,inactive: -0.009,inactive: -0.309,inactive: 0.134,inactive: -0.007,inactive: -0.017,inactive: 0.045,inactive: 0.016,inactive: -0.336,inactive: 0.044,inactive: 0.183,active: -0.602,inactive: 0.097,inactive: -0.067,–
GNPTAB (UniProt Q3T906),inactive: 0.054,inactive: 0.147,inactive: -0.018,inactive: -0.025,inactive: -0.001,–,–,inactive: -0.042,inactive: 0.168,inactive: -0.003,inactive: -0.381,inactive: 0.011,inactive: 0.046,inactive: -0.156,–
GM2A (UniProt P17900),inactive: 0.051,inactive: 0.052,inactive: -0.006,inactive: -0.033,inactive: 0.045,inactive: -0.052,inactive: 0.018,inactive: 0.016,inactive: 0.169,inactive: -0.034,inactive: -0.006,inactive: -0.014,inactive: 0.241,inactive: -0.037,inactive: -0.065

Target,log2 fold change [1],log2 fold change [2],log2 fold change [3],log2 fold change [4],log2 fold change [5],log2 fold change [6],log2 fold change [7],log2 fold change [8],log2 fold change [9],log2 fold change [10],log2 fold change [11],log2 fold change [12],log2 fold change [13],log2 fold change [14],log2 fold change [15]
GOLGA4 (UniProt Q13439),inactive: -0.072,inactive: -0.025,inactive: -0.153,inactive: 0.022,inactive: 0.037,inactive: -0.039,–,inactive: -0.05,inactive: -0.004,inactive: 0.069,inactive: -0.199,inactive: -0.267,inactive: -0.026,inactive: -0.198,inactive: 0.126
GNG12 (UniProt Q9UBI6),–,–,–,–,–,–,–,–,–,–,inactive: 0.025,inactive: -0.018,inactive: 0.078,inactive: -0.056,inactive: -0.13
GPA33 (UniProt Q99795),inactive: -0.077,inactive: -0.09,–,–,–,inactive: 0.017,inactive: -0.045,inactive: 0.047,inactive: 0.14,inactive: 0.051,inactive: -0.085,inactive: -0.093,inactive: -0.023,inactive: 0.022,inactive: 0.041
GLMP (UniProt Q8WWB7),inactive: -0.22,inactive: -0.167,inactive: -0.052,inactive: 0.054,inactive: -0.041,inactive: 0.089,–,inactive: -0.073,inactive: 0.311,inactive: 0.018,inactive: -0.031,inactive: 0.091,inactive: -0.029,inactive: 0.046,inactive: 0.167
GPR180 (UniProt Q86V85),–,–,inactive: 0.034,inactive: -0.017,inactive: 0.102,–,–,–,–,–,–,–,–,–,–
GPSM1 (UniProt Q86YR5),–,–,inactive: -0.103,inactive: 0.006,inactive: 0.029,inactive: -0.051,–,inactive: -0.074,inactive: -0.162,inactive: 0.056,–,–,–,–,inactive: 0.069
GPRASP2 (UniProt Q96D09),–,–,–,–,–,inactive: 0.107,–,–,–,–,inactive: 0.046,inactive: -0.033,inactive: 0.208,inactive: -0.001,inactive: -0.013
GOLGA7 (UniProt Q7Z5G4),inactive: -0.014,inactive: 0.015,inactive: -0.012,inactive: -0.035,inactive: -0.028,inactive: 0.008,inactive: 0.003,inactive: -0.005,inactive: 0.091,inactive: 0.018,inactive: -0.007,inactive: 0.009,inactive: -0.069,inactive: 0.017,inactive: 0.032
GKAP1 (UniProt Q5VSY0),–,–,inactive: -0.088,inactive: -0.022,inactive: -0.111,–,–,–,–,–,–,–,–,–,–
GORASP2 isoform 3 (UniProt Q9H8Y8),inactive: -0.083,inactive: -0.004,inactive: 0.024,inactive: 0.028,inactive: -0.009,inactive: 0.008,inactive: -0.004,inactive: 0.031,inactive: 0.048,inactive: -0.011,inactive: -0.019,inactive: -0.023,inactive: 0.027,inactive: 0.045,inactive: 0.003
GOLIM4 (UniProt F8W785),–,–,inactive: 0.09,inactive: -0.098,inactive: -0.045,–,–,–,–,–,–,–,–,–,–
GPATCH3 (UniProt Q96I76),–,–,inactive: 0.046,inactive: 0.07,inactive: 0.084,–,–,inactive: 0.124,inactive: 0.071,inactive: -0.073,–,–,–,–,–
GPI (UniProt P06744),inactive: 0.015,inactive: 0.019,inactive: 0.034,inactive: -0.026,inactive: -0.027,inactive: 0.012,inactive: -0.007,inactive: 0.029,inactive: 0.105,inactive: 0.014,inactive: 0,inactive: -0.011,inactive: -0.044,inactive: 0.014,inactive: 0.004
GPD1L (UniProt Q8N335),inactive: -0.035,inactive: 0.02,inactive: 0,inactive: 0.041,inactive: -0.022,inactive: -0.021,inactive: 0.051,inactive: 0.038,inactive: -0.179,inactive: -0.027,inactive: 0.016,inactive: 0.005,inactive: 0.051,inactive: 0.031,inactive: -0.046
GNA12 (UniProt Q03113),inactive: -0.019,inactive: 0.031,inactive: -0.069,inactive: 0.067,inactive: 0.032,inactive: -0.085,inactive: 0.201,–,–,–,–,–,–,–,inactive: 0.263
GOLGA8R (UniProt I6L899),inactive: 0.007,inactive: -0.097,inactive: -0.404,inactive: 0.057,inactive: 0.364,–,inactive: 0.04,inactive: -0.246,inactive: 0.161,inactive: -0.152,inactive: 0.066,inactive: -0.047,inactive: 0.168,inactive: 0.118,–
GPRIN1 (UniProt Q7Z2K8),inactive: 0.018,inactive: 0.03,inactive: -0.021,inactive: -0.009,inactive: -0.01,inactive: -0.034,inactive: 0,inactive: -0.021,inactive: 0.059,inactive: -0.023,inactive: -0.03,inactive: -0.016,inactive: 0.035,inactive: -0.035,inactive: 0.016

# Rewritten bar-delimited: part of the list above.
Target | log2 fold change [1] | log2 fold change [2] | log2 fold change [3] | log2 fold change [4] | log2 fold change [5] | log2 fold change [6] | log2 fold change [7] | log2 fold change [8] | log2 fold change [9] | log2 fold change [10] | log2 fold change [11] | log2 fold change [12] | log2 fold change [13] | log2 fold change [14] | log2 fold change [15]
GPSM1 (UniProt Q86YR5) | – | – | inactive: -0.103 | inactive: 0.006 | inactive: 0.029 | inactive: -0.051 | – | inactive: -0.074 | inactive: -0.162 | inactive: 0.056 | – | – | – | – | inactive: 0.069
GPI (UniProt P06744) | inactive: 0.015 | inactive: 0.019 | inactive: 0.034 | inactive: -0.026 | inactive: -0.027 | inactive: 0.012 | inactive: -0.007 | inactive: 0.029 | inactive: 0.105 | inactive: 0.014 | inactive: 0 | inactive: -0.011 | inactive: -0.044 | inactive: 0.014 | inactive: 0.004
